Laboratory results: PMC4041447
Results are given in words; binding and its absence hold for the method and conditions named. Binding seen in cells or lysates may run through a third protein. These calls come from enrichment with a bait or labelling near it, and not all partners need be listed.

Chains of the proteins cited; added tags and fusions are not shown.
UniProt Q01167: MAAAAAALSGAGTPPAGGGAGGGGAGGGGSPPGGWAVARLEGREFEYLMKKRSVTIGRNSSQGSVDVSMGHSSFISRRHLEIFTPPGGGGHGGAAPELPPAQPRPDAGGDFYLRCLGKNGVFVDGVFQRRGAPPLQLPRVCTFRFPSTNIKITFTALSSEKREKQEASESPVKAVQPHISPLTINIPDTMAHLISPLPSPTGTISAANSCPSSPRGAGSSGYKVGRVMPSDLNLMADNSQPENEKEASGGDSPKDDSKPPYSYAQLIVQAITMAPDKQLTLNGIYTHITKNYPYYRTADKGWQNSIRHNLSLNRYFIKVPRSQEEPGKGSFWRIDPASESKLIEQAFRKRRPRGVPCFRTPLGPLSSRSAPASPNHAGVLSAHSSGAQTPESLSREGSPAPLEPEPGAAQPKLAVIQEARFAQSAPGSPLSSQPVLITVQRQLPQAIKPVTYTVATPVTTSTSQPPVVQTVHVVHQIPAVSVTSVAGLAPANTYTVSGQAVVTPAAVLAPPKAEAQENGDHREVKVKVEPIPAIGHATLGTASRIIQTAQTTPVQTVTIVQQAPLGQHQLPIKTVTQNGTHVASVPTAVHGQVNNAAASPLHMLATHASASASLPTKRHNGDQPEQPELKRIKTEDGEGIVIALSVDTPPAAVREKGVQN
UniProt Q09028: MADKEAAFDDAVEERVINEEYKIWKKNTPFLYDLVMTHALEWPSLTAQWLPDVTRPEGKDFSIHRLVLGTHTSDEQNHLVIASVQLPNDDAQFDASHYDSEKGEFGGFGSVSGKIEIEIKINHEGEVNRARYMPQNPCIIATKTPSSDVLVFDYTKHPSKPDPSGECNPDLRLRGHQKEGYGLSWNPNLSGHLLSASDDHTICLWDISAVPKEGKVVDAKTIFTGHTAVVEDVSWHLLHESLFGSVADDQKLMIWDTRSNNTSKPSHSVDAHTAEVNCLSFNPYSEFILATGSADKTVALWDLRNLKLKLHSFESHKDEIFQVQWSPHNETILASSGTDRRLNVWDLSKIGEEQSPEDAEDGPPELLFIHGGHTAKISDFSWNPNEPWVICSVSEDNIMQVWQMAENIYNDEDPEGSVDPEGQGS
UniProt Q13547: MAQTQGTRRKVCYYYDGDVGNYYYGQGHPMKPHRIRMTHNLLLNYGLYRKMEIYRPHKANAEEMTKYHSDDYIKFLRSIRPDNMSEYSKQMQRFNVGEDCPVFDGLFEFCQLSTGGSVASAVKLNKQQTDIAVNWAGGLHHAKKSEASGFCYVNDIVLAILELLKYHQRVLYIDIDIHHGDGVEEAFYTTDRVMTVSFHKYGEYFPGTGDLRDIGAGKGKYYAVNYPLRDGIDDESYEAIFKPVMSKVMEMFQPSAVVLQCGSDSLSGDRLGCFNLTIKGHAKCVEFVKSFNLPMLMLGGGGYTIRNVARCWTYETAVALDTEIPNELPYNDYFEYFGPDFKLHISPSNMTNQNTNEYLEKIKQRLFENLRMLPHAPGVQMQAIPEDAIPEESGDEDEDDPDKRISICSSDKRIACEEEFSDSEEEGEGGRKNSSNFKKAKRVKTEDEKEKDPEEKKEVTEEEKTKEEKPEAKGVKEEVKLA

Target: Flag-tagged FOXK2 (FOXK2–HF) (UniProt Q01167)
Experiment: affinity purification with mass spectrometry; RIME: formaldehyde cross-linked U2OS–FOXK2–HF cells, anti-Flag M2 immunoprecipitation of FOXK2, mass spectrometry; control IPs from U2OS–HF cells

Substance	binding
RBBP4 (from UniProt Q09028 1-425)	binds
endogenous HDAC1 (from UniProt Q13547 1-482) (enzyme)	binds
